Screening data, single-dose tests

Measurements from “University of Dundee, Small-Polar-MMV Screening Library” (2021), ChEMBL document CHEMBL3988442.

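Assay of Toxoplasma gondii numbers, read through their beta-galactosidase reporter with a colour substrate. Compounds at 10 µM. Higher reads as fewer parasites (inferred from which compounds were picked for retests). Size under these conditions: about 67,000 compounds, about 260 of them at 50% or above in at least one test.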

Values are the deposited “Percent Effect”, in %. The controls that fix the scale are not given in the record; negative values are as filed. This is an unselected part of the compounds tested.

| # | structure | effect |
|---|---|---|
| 1 | `OCc1csc(N2C[C@@H](CN3CCCCCC3)[C@@H](CO)C2)n1` | -8.149 |
| 2 | `[H][C@@]12CS(=O)(=O)C[C@]1([H])N(C(=O)Cc1cccs1)CCN2C(=O)COC` | 8.913 |
| 3 | `COc1ccccc1-c1cc(C(=O)N(C)C)nc2c1cnn2C` | 12.28 |
| 4 | `O=C(O)[C@H]1OCC(=O)N(Cc2cccc(Cl)c2)[C@@H]1c1ccccc1` | 7.963 |
| 5 | `[H][C@]12CC[C@@]3(N=C(c4ccccc4)NC3=O)[C@@]1([H])CN(Cc1nccs1)C2` | 3.202 |
| 6 | `Cn1cnnc1CN1CCC2(CCC(=O)N(Cc3ccccn3)C2)CC1` | -2.169 |
| 7 | `CCC(=O)N1CCC(O)(c2ncc(OC)nc2OC)CC1` | -11.51 |
| 8 | `[H][C@]12CN(C(=O)c3ccc4c(c3)OCO4)CCN1C(=O)N(CCOC)C2` | -16.71 |
| 9 | `CCc1nc(CNc2ccc(C(=O)N3CCSCC3)cc2C)no1` | 7.112 |
| 10 | `CCCS(=O)(=O)N1CCC2(CC1)CC(Nc1ncccn1)CO2` (stereo not shown) | 1.943 |
| 11 | `O=C(O)C(F)(F)F.[H][C@@]12CN(C)CCO[C@]1([H])CN(C(=O)COc1ccccc1OC)C2` | -2.319 |
| 12 | `Cc1cc(C(=O)N2CCCC(c3cc(C(F)(F)F)[nH]n3)C2)[nH]n1` (stereo not shown) | 1.244 |
| 13 | `O=C(O)C(F)(F)F.O=C(O)C(F)(F)F.[H][C@@]12CCCO[C@]1([H])[C@H](N(C)C(C)C)CN(Cc1csc(C)n1)C2` | -11.28 |
| 14 | `[H][C@]12CC[C@]([H])(CN(C(=O)c3cccnc3)C1)N(Cc1cc(F)ccc1F)C2` | -0.8758 |
| 15 | `Cc1cc(C)cc(N2CCN(C(=O)C3CN(C)C(=O)N3)CC2=O)c1` (stereo not shown) | -15.45 |
| 16 | `CC(=O)N1Cc2ccccc2CC2(CCCCN2C)C1` (stereo not shown) | 1.535 |
| 17 | `NC(=O)NCC1CCCCN1C(=O)c1cc(F)cc(F)c1` (stereo not shown) | -4.577 |
| 18 | `Cc1cnc(N2CCC(OCCN3CCCCC3)C2)nc1C` (stereo not shown) | -0.2835 |
| 19 | `O=C(O)C(F)(F)F.[H][C@@]12CCCO[C@]1([H])[C@H](OCC1CCOCC1)CN2c1ncc(F)cn1` | -13.27 |
| 20 | `O=C(CCC1CCCC1)N1CCC(c2ncc3c(n2)CCNC3)CC1` | 24.66 |
| 21 | `CCc1nc(C)c(C(C)N(C)CCOC)s1` (stereo not shown) | -4.843 |
| 22 | `Cc1ncc(-c2ccncc2)c(C2CCN(C(=O)c3ccco3)CC2)n1` | 5.131 |
| 23 | `Cc1cc(N2CCC(C(=O)O)(n3ccc(C(C)(C)C)n3)CC2)nc(N)n1` | 0.6324 |
| 24 | `COc1cccc(Cc2nnc(SC3CCOC3=O)o2)c1` (stereo not shown) | -0.5507 |
| 25 | `Cc1nn(C)c(Cl)c1CNCc1cccnc1N1CCN(C)CC1.Cl` | 3.167 |
| 26 | `Cc1ccc(C2CN(C(=O)NCc3nnc4ccccn34)CCO2)o1` (stereo not shown) | -2.065 |
| 27 | `COCC(=O)NCCc1nc2cc(-c3ccc(OC)cc3)ncn2n1` | 13.44 |
| 28 | `CNC(=O)c1cn[nH]c1C1CCN(Cc2ccccc2F)C1` (stereo not shown) | 7.697 |
| 29 | `CCN(CC)CC[C@H]1CN(C(=O)C(C)(C)C)CC[C@H]1CC(=O)O` | 6.358 |
| 30 | `CN(CC1CC1)S(=O)(=O)c1ccc(C(F)(F)F)cc1C#N` | -10.42 |
| 31 | `FC(F)(F)c1cc(C2CCCN(Cc3ccncc3)C2)n[nH]1` (stereo not shown) | -2.697 |
| 32 | `CC(C)c1nc(CN(C)C(=O)CCNC(=O)c2ccccc2F)no1` | -19.57 |
| 33 | `CCc1csc(C2CCCN(C(=O)c3cc(Cl)c[nH]3)C2)n1` (stereo not shown) | 1.555 |
| 34 | `CN(C)CC1CN(Cc2coc(-c3ccccc3)n2)CCO1` (stereo not shown) | -22.21 |
| 35 | `O=C1CC2(CCSC2)C(=O)N1Cc1ncc(-c2cccc(F)c2)o1` (stereo not shown) | -5.324 |
| 36 | `Cc1cc(Cl)ccc1S(=O)(=O)NCC(C)N1CCN(C)CC1` (stereo not shown) | -1.966 |
| 37 | `Cc1cccc(CN(Cc2cccnc2)C2CC(C)(C)NC(C)(C)C2)n1.O=C(O)CC(O)(CC(=O)O)C(=O)O` | -17.15 |
| 38 | `CNC(=O)Cc1ccc(NC(=O)NC(C)C(C)C)cc1` (stereo not shown) | 2.162 |
| 39 | `O=C(NCc1nncn1C1CC1)C1(c2cccc(F)c2)CCOCC1` | 1.746 |
| 40 | `CC(C)CCn1cc(C(C(=O)O)N2CCCN(C3CCCC3)CC2)cn1` (stereo not shown) | -24.22 |
| 41 | `O=C(c1cccc2c1OCCO2)N1CCCC1c1noc(C2CC2)n1` (stereo not shown) | -11.54 |
| 42 | `CN1CCN(Cc2ccc(Cl)cc2)CC1C(=O)O` (stereo not shown) | 7.497 |
| 43 | `CCOCC(=O)N1CCn2cc(CN(C)Cc3ccco3)nc2C1` | 2.709 |
| 44 | `Nc1cc(-c2c[nH]nc2C2CCN(C(=O)C3CCCC3)C2)ccn1` (stereo not shown) | 5.055 |
| 45 | `O=C(O)C(F)(F)F.O=C(O)C(F)(F)F.O=C(O)C(F)(F)F.c1ccc(CN2CCOC3(CCN(c4ncccn4)CC3)C2)nc1` | 10.02 |
| 46 | `[H][C@@]12CN(Cc3c(C)noc3C)C[C@]1([H])CN(C(=O)c1cscn1)C2` | 3.276 |
| 47 | `[H][C@@]12CCN(CC3CC3)C[C@]1([H])OCCN(c1cccnc1)C2=O` | -20.01 |
| 48 | `CCCC(=O)NC(C)(C)Cc1ccccc1OC` | -0.5895 |
| 49 | `CNC(=O)CCc1cc(C)nc(C2CCCN2)n1` (stereo not shown) | 3.78 |
| 50 | `CC(C)n1nc(CN2CCCC2=O)c2c1CN(C(=O)c1ccco1)C2` | 13.62 |
| 51 | `O=c1oc(-c2cccs2)nn1CC1(O)CCCCC1` | 3.344 |
| 52 | `Cc1nn(C)c(Oc2ccc(Cl)cc2)c1CN1CCOC(CN)C1` (stereo not shown) | 5.049 |
| 53 | `COCc1nc2cc(NCc3sc(C)nc3C)ccc2o1` | 0.911 |
| 54 | `[H][C@]12CCCCN1CCC[C@H]2CCC(=O)NCCc1cc(O)ncn1` | -5.014 |
| 55 | `CC(O)c1cccc(OCc2ccon2)c1` (stereo not shown) | 7.459 |
| 56 | `Cc1ccc(-c2nnc(CN3CCCC(Cn4cncn4)C3)o2)cc1` (stereo not shown) | 3.834 |
| 57 | `CC(C)C(C)NC(=O)CN1CCSCC1` (stereo not shown) | 8.07 |
| 58 | `COc1ccc(-n2c(CO)nc3ccccc32)cc1CO` | 2.304 |
| 59 | `CCn1c(CN2CCOC(Cn3cncn3)C2)nc2c(F)cccc21` (stereo not shown) | -36.54 |
| 60 | `CC(C)c1nnc2ccc(N3CCC(C(=O)O)CC3)nn12` | -11 |
| 61 | `Cc1ccccc1C1(CNCc2cnc(N3CCOCC3)nc2)CC1` | 11.61 |
| 62 | `Cc1nc(-c2ccoc2)n(CC(=O)N(C)CC(C)C)c1C` | -16.16 |
| 63 | `O=C(c1cscn1)N1CCC2(CCCN(CCOc3ccccc3)C2)C1` (stereo not shown) | -18.81 |
| 64 | `CC(C)c1noc(CCCC(=O)NCC2CCS(=O)(=O)C2)n1` (stereo not shown) | -32.09 |
| 65 | `Cc1ccccc1C(=O)Nc1cnn(CCN2CCOCC2)c1` | -9.371 |
| 66 | `CCc1noc(CNc2cc(F)ccc2OCC2CCCO2)n1` (stereo not shown) | -1.039 |
| 67 | `O=C(NCCNC(=O)C1CCN(CC(F)(F)F)CC1)c1ccoc1` | -6.302 |
| 68 | `CN(C)CC(=O)N1CCC2(CC1)COc1ccccc1S(=O)(=O)N(C)C2` | 14.7 |
| 69 | `CS(=O)(=O)c1cccc(C(=O)NCC2Cc3ccccc3O2)c1` (stereo not shown) | -1.651 |
| 70 | `O=C(Nc1nc2c(s1)CN(S(=O)(=O)C1CC1)CC2)c1ccccn1` | 14.03 |
| 71 | `CCn1cc(NC(=O)NCCc2ccc3c(c2)OCCO3)cn1` | 4.708 |
| 72 | `COc1nc2ccn(CCc3scnc3C)c(=O)c2cc1C#N` | 1.081 |
| 73 | `COCCN1CCN(C(C)c2nc(C3CC3)no2)CC1` (stereo not shown) | 11.09 |
| 74 | `Cc1nc(-c2ccccc2)sc1C(=O)N(C1CC1)C1CC(=O)NC1=O` (stereo not shown) | 2.373 |
| 75 | `[H][C@]12CC[C@]([H])(CN(Cc3cscn3)C1)N(C(=O)CN1CCOC1=O)C2` | -18.7 |
| 76 | `CCOCC1CN(S(=O)(=O)C2CC2)Cc2cnn(C)c21` (stereo not shown) | 3.513 |
| 77 | `Cc1nc(C2CCCNC2)nc2c1CCCN2Cc1ccccn1.Cl.Cl` (stereo not shown) | -21.83 |
| 78 | `CC(C)c1ccc(CN2CCCC3(CC2)CN(C)C(=O)O3)cc1` (stereo not shown) | -29.84 |
| 79 | `CCCSc1ccccc1NC(=O)N1CCC(N2CCSCC2)CC1` | 7.031 |
| 80 | `COCC(=O)N1CCC2(CC1)CC(OC)CO2` (stereo not shown) | -2.181 |
| 81 | `CC(C)n1cnnc1SCCN(C)c1ccccc1` | -5.204 |
| 82 | `CCCn1nc(C(=O)NCc2nnc3n2CCC3)ccc1=O` | 15.48 |
| 83 | `COc1cc(C2SCC(=O)Nc3ccsc32)cc(OC)c1OC` (stereo not shown) | -12.56 |
| 84 | `CN(Cc1ccc2c(c1)OCCO2)Cc1nnnn1-c1ccccc1` | -19.55 |
| 85 | `CCCc1nnc(N2CCN(Cc3ccccc3OC)CC2)o1` | 21.32 |